From paper PMC7102948

Chains of the proteins cited; added tags and fusions are not shown. Lines headed by an entry give the natural chain unless they say otherwise; changes in a name come on top.
UniProt O04492: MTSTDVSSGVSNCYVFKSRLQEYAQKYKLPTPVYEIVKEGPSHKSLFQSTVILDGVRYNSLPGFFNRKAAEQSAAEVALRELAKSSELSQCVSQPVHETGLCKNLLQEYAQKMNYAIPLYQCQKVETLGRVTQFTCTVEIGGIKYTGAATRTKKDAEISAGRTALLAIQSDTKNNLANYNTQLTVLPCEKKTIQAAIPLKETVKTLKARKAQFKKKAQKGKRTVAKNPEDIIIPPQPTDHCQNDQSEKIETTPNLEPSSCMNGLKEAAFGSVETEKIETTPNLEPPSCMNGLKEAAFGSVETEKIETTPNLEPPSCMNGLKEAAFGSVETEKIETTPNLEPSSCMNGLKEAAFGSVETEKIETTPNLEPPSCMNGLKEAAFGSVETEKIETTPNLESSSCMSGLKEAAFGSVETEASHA

Key:
[1] = molecular target: T1, AtHYL1 dsRBD1 S18N/Y23L peptide (Arabidopsis thaliana) (UniProt O04492); assay: EMSA; conditions: 5 mM Mg2+, 83 mM Tris pH 8 (printed 'Tris pH 8, 83 mM'), 100 mM NaCl, 66 mM KCl, 5 mM MgCl2, 5 mM DTT, 25 C, 30 min, 4% TBE gel run cold, label: 32P 5'-end
T1 sequence: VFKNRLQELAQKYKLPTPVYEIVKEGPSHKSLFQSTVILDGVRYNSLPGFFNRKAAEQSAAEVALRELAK

[2] = molecular target: T2, AtHYL1 dsRBD1 WT peptide (Arabidopsis thaliana) (UniProt O04492); assay: EMSA; conditions: 5 mM Mg2+, 83 mM Tris pH 8 (printed 'Tris pH 8, 83 mM'), 100 mM NaCl, 66 mM KCl, 5 mM MgCl2, 5 mM DTT, 25 C, 30 min, 4% TBE gel run cold, label: 32P 5'-end
T2 sequence: T1 sequence with N4S, L9Y

Row | Sequence | binding result ([1]; binding abolished) | binding result ([2]; complex did not enter the gel) | binding result ([1]; almost negligible) | binding result [2]
1 | AGUGGAAGAGGCAUGCAGAGGAGGAAACUCCUGUGCUUGCCUCUUCCAUU [miR528 stem-loop modified] | no binding | binds |  | 
2 | UUAUUAAUUUCGGCCCCGGCG / CGCCGGGCCCGAAAUUAAUAA [amiRscr52 duplex] |  |  | binds more weakly | binds more weakly
3 | UCGAACUAGGUCUCAGUGCUC / GAGCACUGUGACCUAGUUCGA [amiR52 duplex] |  |  | binds more weakly | binds
4 | UCGAAUAAGAUACUAUACGUU / AACGUAUACUAUCUUAUUCGA [amiR28 duplex] |  |  | binds more weakly | binds more weakly
5 | UCGAACAGGGCGCCAGUGCCC / GGGCACUGCCGCCCUGUUCGA [amiR72 duplex (71% GC)] |  |  | binds more weakly | binds more weakly

Positions count from the first letter of the chain named. For at least one entry, the source does not settle the construct or the ends of the probe. For some of these results: A negative result means that nothing was seen under these conditions. Where a protein sequence is shown, tags need not be part of it. Weaker means in comparison with the reference protein, sequence or condition of that experiment. At least one verdict rests on a figure or table, not on a statement of the authors.
